Experimental data taken from ChEMBL document CHEMBL1687827, “Profiling the Aspergillus fumigatus proteome in response to caspofungin” (2011).
The source gives many values for each of these; only a part stands here.

Assays:
Format in all cases: functional
Aspergillus fumigatus [1] = assay: Induction of change in ubiquitin (UbiC), putative gene expression in drug-susceptible Aspergillus fumigatus KU80 delta-akuB at 0.12 ug/ml after 24 hrs in YPD medium by microarray analysis relative to control
Aspergillus fumigatus [2] = assay: Induction of change in ubiquinol-cytochrome C reductase complex core protein 2, putative protein level in iTRAQ-116 labelled secreted fraction of drug-susceptible Aspergillus fumigatus KU80 delta-akuB at 0.12 ug/ml after 48 hrs in YPD medium by MS (MS/MS) analysis relative to control
Aspergillus fumigatus [3] = assay: Induction of change in 60S ribosomal protein L1 gene expression in drug-susceptible Aspergillus fumigatus KU80 delta-akuB at 0.12 ug/ml after 24 hrs in YPD medium by microarray analysis relative to control
Aspergillus fumigatus [4] = assay: Induction of change in acetyl-CoA-acetyltransferase, putative gene expression in drug-susceptible Aspergillus fumigatus KU80 delta-akuB at 0.12 ug/ml after 48 hrs in YPD medium by microarray analysis relative to control
Aspergillus fumigatus [5] = assay: Induction of change in IgE-binding protein level in iTRAQ114 labelled secreted fraction of drug-resistant Aspergillus fumigatus EMFR-S678P at 0.12 ug/ml after 24 hrs in YPD medium by MS (MS/MS) analysis relative to control
Aspergillus fumigatus [6] = assay: Induction of change in 60S ribosomal protein L19 protein level in iTRAQ-118 labelled cell wall fraction of drug-resistant Aspergillus fumigatus EMFR-S678P at 0.12 ug/ml after 24 hrs in YPD medium by MS (MS/MS) analysis relative to control
Aspergillus fumigatus [7] = assay: Induction of change in allergen Asp F4 protein level in iTRAQ114 labelled secreted fraction of drug-susceptible Aspergillus fumigatus KU80 delta-akuB at 0.12 ug/ml after 24 hrs in YPD medium by MS (MS/MS) analysis relative to control
Aspergillus fumigatus [8] = assay: Induction of change in eukaryotic translation initiation factor subunit eIF-4F, putative protein level in iTRAQ-116 labelled secreted fraction of drug-susceptible Aspergillus fumigatus KU80 delta-akuB at 0.12 ug/ml after 48 hrs in YPD medium by MS (MS/MS) analysis relative to control
Aspergillus fumigatus [9] = assay: Induction of change in 37S ribosomal protein S24 protein level in iTRAQ-118 labelled cell wall fraction of drug-susceptible Aspergillus fumigatus KU80 delta-akuB at 0.12 ug/ml after 24 hrs in YPD medium by MS (MS/MS) analysis relative to control
Aspergillus fumigatus [10] = assay: Induction of change in secreted dipeptidyl peptidase DppV protein level in iTRAQ-118 labelled cell wall fraction of drug-resistant Aspergillus fumigatus EMFR-S678P at 0.12 ug/ml after 48 hrs in YPD medium by MS (MS/MS) analysis relative to control
Aspergillus fumigatus [11] = assay: Induction of change in ubiquinol-cytochrome C reductase complex core protein 2, putative protein level in iTRAQ-116 labelled secreted fraction of drug-resistant Aspergillus fumigatus EMFR-S678P at 0.12 ug/ml after 48 hrs in YPD medium by MS (MS/MS) analysis relative to control
Aspergillus fumigatus [12] = assay: Induction of change in CipC-like antibiotic response protein, putative protein level in iTRAQ-116 labelled secreted fraction of drug-resistant Aspergillus fumigatus EMFR-S678P at 0.12 ug/ml after 48 hrs in YPD medium by MS (MS/MS) analysis relative to control
Aspergillus fumigatus [13] = assay: Induction of change in cytochrome c oxidase polypeptide vib protein level in iTRAQ-118 labelled cell wall fraction of drug-susceptible Aspergillus fumigatus KU80 delta-akuB at 0.12 ug/ml after 24 hrs in YPD medium by MS (MS/MS) analysis relative to control
Aspergillus fumigatus [14] = assay: Induction of change in ribosomal protein S23 protein level in iTRAQ114 labelled secreted fraction of drug-susceptible Aspergillus fumigatus KU80 delta-akuB at 0.12 ug/ml after 24 hrs in YPD medium by MS (MS/MS) analysis relative to control
Aspergillus fumigatus [15] = assay: Induction of change in hypothetical protein level in iTRAQ114 labelled secreted fraction of drug-resistant Aspergillus fumigatus EMFR-S678P at 0.12 ug/ml after 24 hrs in YPD medium by MS (MS/MS) analysis relative to control
Aspergillus fumigatus [16] = assay: Induction of change in CFEM domain protein, putative gene expression in drug-susceptible Aspergillus fumigatus KU80 delta-akuB at 0.12 ug/ml after 24 hrs in YPD medium by microarray analysis relative to control
Aspergillus fumigatus [17] = assay: Induction of change in extracellular cell wall glucanase Crf1/allergen Asp F9 protein level in iTRAQ-118 labelled cell wall fraction of drug-resistant Aspergillus fumigatus EMFR-S678P at 0.12 ug/ml after 24 hrs in YPD medium by MS (MS/MS) analysis relative to control
Aspergillus fumigatus [18] = assay: Induction of change in extracellular cell wall glucanase Crf1/allergen Asp F9 protein level in iTRAQ-116 labelled secreted fraction of drug-susceptible Aspergillus fumigatus KU80 delta-akuB at 0.12 ug/ml after 48 hrs in YPD medium by MS (MS/MS) analysis relative to control
Aspergillus fumigatus [19] = assay: Induction of change in CipC-like antibiotic response protein, putative protein level in iTRAQ-118 labelled cell wall fraction of drug-susceptible Aspergillus fumigatus KU80 delta-akuB at 0.12 ug/ml after 24 hrs in YPD medium by MS (MS/MS) analysis relative to control
Aspergillus fumigatus [20] = assay: Induction of change in NAD-dependent formate dehydrogenase protein level in iTRAQ-116 labelled cell wall fraction of drug-susceptible Aspergillus fumigatus KU80 delta-akuB at 0.12 ug/ml after 48 hrs in YPD medium by MS (MS/MS) analysis relative to control
Aspergillus fumigatus [21] = assay: Induction of change in Ribosomal L28e protein family gene expression in drug-susceptible Aspergillus fumigatus KU80 delta-akuB at 0.12 ug/ml after 24 hrs in YPD medium by microarray analysis relative to control
Aspergillus fumigatus [22] = assay: Induction of change in ThiJ/PfpI family protein level in iTRAQ-118 labelled cell wall fraction of drug-susceptible Aspergillus fumigatus KU80 delta-akuB at 0.12 ug/ml after 24 hrs in YPD medium by MS (MS/MS) analysis relative to control
Aspergillus fumigatus [23] = assay: Induction of change in ubiquitin (UbiC), putative protein level in iTRAQ114 labelled secreted fraction of drug-susceptible Aspergillus fumigatus KU80 delta-akuB at 0.12 ug/ml after 24 hrs in YPD medium by MS (MS/MS) analysis relative to control
Aspergillus fumigatus [24] = assay: Induction of change in Plasma membrane H-ATPase Pma1 protein level in iTRAQ114 labelled cell wall fraction of drug-susceptible Aspergillus fumigatus KU80 delta-akuB at 0.12 ug/ml after 24 hrs in YPD medium by MS (MS/MS) analysis relative to control
Aspergillus fumigatus [25] = assay: Induction of change in hypothetical gene locus AFUA_3G02730 expression in drug-susceptible Aspergillus fumigatus KU80 delta-akuB at 0.12 ug/ml after 48 hrs in YPD medium by microarray analysis relative to control

CC[C@H](C)C[C@H](C)CCCCCCCCC(=O)N[C@H]1C[C@@H](O)[C@@H](NCCN)NC(=O)[C@@H]2[C@@H](O)CCN2C(=O)[C@H]([C@H](O)CCN)NC(=O)[C@H]([C@H](O)[C@@H](O)c2ccc(O)cc2)NC(=O)[C@@H]2C[C@@H](O)CN2C(=O)[C@H]([C@@H](C)O)NC1=O [CASPOFUNGIN]
fold change (FC) (Aspergillus fumigatus [1]): 6.5 | fold change (FC) (Aspergillus fumigatus [2]): -2.1 | fold change (FC) (Aspergillus fumigatus [3]): 3.3 | fold change (FC) (Aspergillus fumigatus [4]): -10.3 | fold change (FC) (Aspergillus fumigatus [5]): 1.52 | fold change (FC) (Aspergillus fumigatus [6]): 1.23 | fold change (FC) (Aspergillus fumigatus [7]): 2.3 | fold change (FC) (Aspergillus fumigatus [8]): -8.6 | fold change (FC) (Aspergillus fumigatus [9]): 2.1 | fold change (FC) (Aspergillus fumigatus [10]): -1.32 | fold change (FC) (Aspergillus fumigatus [11]): -1.07 | fold change (FC) (Aspergillus fumigatus [12]): -1.23 | fold change (FC) (Aspergillus fumigatus [13]): -4.9 | fold change (FC) (Aspergillus fumigatus [14]): -1.2 | fold change (FC) (Aspergillus fumigatus [15]): -1.07 | fold change (FC) (Aspergillus fumigatus [16]): -6.5 | fold change (FC) (Aspergillus fumigatus [17]): -1.41 | fold change (FC) (Aspergillus fumigatus [18]): -3.7 | fold change (FC) (Aspergillus fumigatus [19]): -3.2 | fold change (FC) (Aspergillus fumigatus [20]): -1.3 | fold change (FC) (Aspergillus fumigatus [21]): 5.6 | fold change (FC) (Aspergillus fumigatus [22]): -4.3 | fold change (FC) (Aspergillus fumigatus [23]): -1.9 | fold change (FC) (Aspergillus fumigatus [24]): -4.3 | fold change (FC) (Aspergillus fumigatus [25]): 3.7
